Data published in US20110059102A1, “Therapeutic Method Targeting Midkine” (NATIONAL UNIVERSITY CORPORATION NAGOYA UNIVERSITY, priority 2009, published 2011).

Test: Body weight, blood urea nitrogen and serum creatinine after 5/6 nephrectomy, drug treatment model
Format: in vivo
Details: 2 weeks after nephrectomy; Mdk+/+ mice, oral daily at indicated dose; mean ± SD
Experimental: Animals and experimental design. Mice deficient in Mdk were generated as described previously (Genes Cells. 3:811-822). After backcrossing of Mdk+/− mice for 14 generations with 129/Sv mice, Mdk+/− mice were mated with each other to generate Mdk^+/+ and Mdk^−/− mice, which were used in this study. Experiments were performed on 8 to 12-week-old female mice weighing 20-25 g that were housed under controlled environmental conditions and maintained with standard food and water. Animal care and experimental procedures were approved by the Animal Experimentation Committee of the Nagoya University Graduate School of Medicine and were conducted according to the Nagoya University Regulations for Experiments. Renal ablation was performed as described previously. Briefly, mice were anesthetized by diethyl ether. The flank region was shaved, and the animals were placed on a heating pad to maintain a constant body temperature (37° C.). Under anesthesia, right flank incisions were made, and the right kidney was removed. Seven days later, mice were anesthetized as above, and two-thirds of the mass of the left kidneys was ablated (Mdk^+/+: 2 weeks, n=13; 4 weeks, n=13; 8 weeks, n=8; Mdk^−/−: 2 weeks, n=10; 4 weeks, n=10; 8 weeks, n=4). After the renal ablation, the flanks were closed in 2 layers with 5-0 silk sutures. […]
Drug treatment model. […] In the present study, we determined the dosage according to previous reports (Hypertension. 13:582-588, J. Cardiovasc. Pharmacol. 40:533-542, Hypertension. 43:841-848). Blood pressure was measured by the tail-cuff method at 2 weeks, as described below under Blood pressure monitoring. […]
Sample collection. […] Serum creatinine, blood urea nitrogen (Mdk^+/+: sham, n=6; 2 weeks, n=10; 4 weeks, n=9; 8 weeks, n=8; Mdk^−/−: sham, n=7; 2 weeks, n=7; 4 weeks, n=6; 8 weeks, n=4), and Ang II concentrations (Mdk^+/+: sham, n=6; 2 weeks, n=6; 4 weeks, n=8; Mdk^−/−: sham, n=6; 2 weeks, n=7; 4 weeks, n=5) were measured by Mitsubishi BCL.

Structure (SMILES) | BW [g]
NNc1nncc2ccccc12 [Hydralazine, hydralazine hydrochloride] | 18.7 ± 0.7
CCOC(=O)[C@H](CCc1ccccc1)N[C@H]1CS[C@H](c2cccs2)CN(CC(=O)O)C1=O [Temocapril, temocapril] | 19.7 ± 2.7
CC1(C)CC(O)CC(C)(C)N1[O] [Tempol, 4-hydroxy-2,2,6,6-tetramethylpiperidine-N-oxyl] | 21.4 ± 1.6

Where a name gives a salt, the structure may show the parent alone.
